Results are given in words; binding and its absence hold for the method and conditions named. In cells and extracts the contact can be indirect. Some results given as binding are weak or reduced against the parent protein; the word gives no strength. For part of these data: Tags and fused reporters may be left off the sequences shown.
Key:
[1] = molecular target: FLAG-tagged VRK2A (wild type) (human) (UniProt Q86Y07); assay: co-IP; 293T cells transfected with tagged VRK and Akt constructs (FLAG-VRK2, HA-Akt); immunoblot; which partner was precipitated is not told
[2] = molecular target: T1, EGFP-Phafin2 (UniProt Q9H8W4); assay: co-IP; 293T cells cotransfected with FLAG-VRK2, HA-Akt2 and EGFP-Phafin2; precipitation with anti-FLAG and anti-GFP antibodies, immunoblot with anti-GFP, anti-HA and anti-FLAG
T1 sequence: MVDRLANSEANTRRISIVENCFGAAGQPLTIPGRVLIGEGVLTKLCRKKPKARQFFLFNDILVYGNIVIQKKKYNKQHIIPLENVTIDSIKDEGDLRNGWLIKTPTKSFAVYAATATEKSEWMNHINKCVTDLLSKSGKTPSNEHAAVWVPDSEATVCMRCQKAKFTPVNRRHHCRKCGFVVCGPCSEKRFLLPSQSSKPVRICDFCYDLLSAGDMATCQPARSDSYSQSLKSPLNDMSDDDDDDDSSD

Sequences of proteins named here, by UniProt entry; tags and fusion partners are left off. A change or cut given only in a name is not applied to a line headed by its entry.
UniProt Q86Y07: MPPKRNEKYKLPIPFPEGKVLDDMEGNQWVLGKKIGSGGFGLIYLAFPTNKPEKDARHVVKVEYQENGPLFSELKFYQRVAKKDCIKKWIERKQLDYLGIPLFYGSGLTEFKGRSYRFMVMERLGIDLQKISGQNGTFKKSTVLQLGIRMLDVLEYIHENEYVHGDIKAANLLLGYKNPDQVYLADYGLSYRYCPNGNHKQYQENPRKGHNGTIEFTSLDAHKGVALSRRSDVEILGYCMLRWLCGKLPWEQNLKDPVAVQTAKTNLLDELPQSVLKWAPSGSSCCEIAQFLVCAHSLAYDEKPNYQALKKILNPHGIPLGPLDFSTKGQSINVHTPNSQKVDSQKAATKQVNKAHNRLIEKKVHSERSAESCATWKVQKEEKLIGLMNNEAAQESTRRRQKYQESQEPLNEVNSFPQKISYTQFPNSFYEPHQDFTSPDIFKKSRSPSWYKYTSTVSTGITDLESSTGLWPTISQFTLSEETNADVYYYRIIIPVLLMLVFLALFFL
UniProt P31749: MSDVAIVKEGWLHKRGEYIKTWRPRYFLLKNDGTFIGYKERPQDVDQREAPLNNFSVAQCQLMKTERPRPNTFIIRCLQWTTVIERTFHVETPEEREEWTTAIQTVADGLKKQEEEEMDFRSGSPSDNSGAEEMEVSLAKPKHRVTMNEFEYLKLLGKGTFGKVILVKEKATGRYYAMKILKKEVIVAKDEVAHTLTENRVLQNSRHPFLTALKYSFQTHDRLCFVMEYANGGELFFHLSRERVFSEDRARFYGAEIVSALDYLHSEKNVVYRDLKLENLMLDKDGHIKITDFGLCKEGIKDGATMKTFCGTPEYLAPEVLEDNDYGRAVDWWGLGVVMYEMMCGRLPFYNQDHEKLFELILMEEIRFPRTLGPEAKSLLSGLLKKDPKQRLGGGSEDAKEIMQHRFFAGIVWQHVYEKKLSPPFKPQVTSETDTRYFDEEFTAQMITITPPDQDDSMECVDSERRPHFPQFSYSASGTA
UniProt Q9Y243: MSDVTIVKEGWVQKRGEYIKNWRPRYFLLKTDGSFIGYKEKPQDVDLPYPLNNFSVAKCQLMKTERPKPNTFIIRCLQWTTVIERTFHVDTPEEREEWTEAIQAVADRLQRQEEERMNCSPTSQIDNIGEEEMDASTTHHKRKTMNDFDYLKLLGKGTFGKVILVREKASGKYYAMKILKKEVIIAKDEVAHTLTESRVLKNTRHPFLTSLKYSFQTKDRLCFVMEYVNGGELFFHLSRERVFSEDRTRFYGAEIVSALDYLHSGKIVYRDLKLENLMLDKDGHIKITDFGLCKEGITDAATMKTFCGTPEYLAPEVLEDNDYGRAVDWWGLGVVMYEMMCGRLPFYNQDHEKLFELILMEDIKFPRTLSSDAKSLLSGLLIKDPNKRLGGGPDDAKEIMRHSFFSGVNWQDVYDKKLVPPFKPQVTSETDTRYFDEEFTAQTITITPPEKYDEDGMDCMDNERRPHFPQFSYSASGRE

binding [1]	binding [2]	Substance
binds	–	Akt1 (from UniProt P31749 1-480)
no binding	–	Akt3 (from UniProt Q9Y243 1-479)
–	no binding	FLAG-tagged VRK2A (wild type) (from UniProt Q86Y07-1 1-508)
